According to PMC3390395:
No constants are given. Whether binding was seen depends on the method and setting. Binding seen in cells or lysates may run through a third protein. Some binding calls cover weakened binding; strength is not graded here.

The chains behind the UniProt entries cited, without tags or fusion partners. Residues count along the entry.
UniProt P02769, residues 25-607: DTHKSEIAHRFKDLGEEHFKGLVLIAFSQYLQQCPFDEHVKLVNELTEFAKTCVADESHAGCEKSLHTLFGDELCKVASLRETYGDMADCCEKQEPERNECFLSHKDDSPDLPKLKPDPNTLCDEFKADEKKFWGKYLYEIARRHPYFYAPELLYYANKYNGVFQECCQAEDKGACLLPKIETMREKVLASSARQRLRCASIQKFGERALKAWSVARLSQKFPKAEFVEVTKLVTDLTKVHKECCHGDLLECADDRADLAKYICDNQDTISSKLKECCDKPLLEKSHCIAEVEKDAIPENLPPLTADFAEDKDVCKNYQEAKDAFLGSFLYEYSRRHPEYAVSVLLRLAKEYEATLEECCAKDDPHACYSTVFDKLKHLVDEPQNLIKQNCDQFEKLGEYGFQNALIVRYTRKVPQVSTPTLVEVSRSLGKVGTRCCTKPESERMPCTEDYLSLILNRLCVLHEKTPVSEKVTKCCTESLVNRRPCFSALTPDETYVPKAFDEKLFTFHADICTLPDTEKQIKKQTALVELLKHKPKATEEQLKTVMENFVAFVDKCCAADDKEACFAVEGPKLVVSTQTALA
UniProt P26368: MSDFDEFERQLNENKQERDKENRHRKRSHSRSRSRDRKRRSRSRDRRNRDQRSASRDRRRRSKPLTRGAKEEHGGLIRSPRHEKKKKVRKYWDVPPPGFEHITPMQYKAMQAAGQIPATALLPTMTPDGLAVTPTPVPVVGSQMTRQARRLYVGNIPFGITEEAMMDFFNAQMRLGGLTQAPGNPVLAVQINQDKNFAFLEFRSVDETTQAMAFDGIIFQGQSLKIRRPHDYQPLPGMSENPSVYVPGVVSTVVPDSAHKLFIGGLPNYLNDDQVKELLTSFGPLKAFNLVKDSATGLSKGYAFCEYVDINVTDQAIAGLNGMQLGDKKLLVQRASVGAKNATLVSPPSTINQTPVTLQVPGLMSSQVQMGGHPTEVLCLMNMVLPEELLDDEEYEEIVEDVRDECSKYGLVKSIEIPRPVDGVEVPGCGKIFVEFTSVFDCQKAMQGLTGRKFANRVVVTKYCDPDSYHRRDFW
UniProt P08621: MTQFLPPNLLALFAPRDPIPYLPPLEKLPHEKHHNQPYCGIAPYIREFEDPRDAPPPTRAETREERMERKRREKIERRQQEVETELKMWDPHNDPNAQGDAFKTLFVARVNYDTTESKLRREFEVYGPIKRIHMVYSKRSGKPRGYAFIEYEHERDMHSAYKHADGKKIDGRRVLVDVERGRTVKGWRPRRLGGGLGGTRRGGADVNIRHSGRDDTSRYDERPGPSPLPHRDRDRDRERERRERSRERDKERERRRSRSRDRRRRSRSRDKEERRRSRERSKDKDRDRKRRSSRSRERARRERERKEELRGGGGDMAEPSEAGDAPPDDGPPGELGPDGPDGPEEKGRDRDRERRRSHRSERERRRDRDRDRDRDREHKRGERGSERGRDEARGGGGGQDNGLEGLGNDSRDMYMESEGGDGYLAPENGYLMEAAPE

What was measured:
[1] = molecular target: Bovine Serum Albumin (bovine) (UniProt P02769); assay: pull-down; 10 ug of 6xHis-tagged protein bound to Ni-NTA beads (legend: nickel or protein-A Sepharose beads covered with rSRSF3, rU2AF65, rU2AF65-RS or BSA), blocked in 10% BSA, incubated overnight at 4°C with 200 ug of H69 nuclear extract in PBS, washed three times with PBS; bound proteins detected by western blot; only the target purified
[2] = molecular target: recombinant U2AF65, full-length, 6xHis-tagged (UniProt P26368); assay: as above

**Q.** For “U1 snRNP 70K (from UniProt P08621 1-437)”, which binding [1] is on record?
**A.** no binding

**Q.** And the binding [2]?
**A.** binds
